Article doi:10.1101/2025.03.26.645561
No constants are given. Whether binding was seen depends on the method and setting. Some entries that bind do so weakly or less than the wild type. For part of these data: Where a sequence is shown, tags or fusion partners need not be part of it.

Sequences of proteins named here, by UniProt entry; tags and fusion partners are left off. Residues count along the entry.
UniProt P25454, residues 80-400: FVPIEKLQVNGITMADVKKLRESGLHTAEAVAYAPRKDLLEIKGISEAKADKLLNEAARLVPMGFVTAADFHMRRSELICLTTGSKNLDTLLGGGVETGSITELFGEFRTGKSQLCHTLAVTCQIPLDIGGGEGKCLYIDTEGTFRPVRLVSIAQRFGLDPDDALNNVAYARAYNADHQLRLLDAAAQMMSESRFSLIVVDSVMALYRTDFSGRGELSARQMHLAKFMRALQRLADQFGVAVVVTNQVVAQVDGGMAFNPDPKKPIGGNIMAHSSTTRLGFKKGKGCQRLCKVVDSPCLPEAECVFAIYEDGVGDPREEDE

T1: full-length S. cerevisiae Rad54 (GST-tagged) (S. cerevisiae), P32863
T1 chain: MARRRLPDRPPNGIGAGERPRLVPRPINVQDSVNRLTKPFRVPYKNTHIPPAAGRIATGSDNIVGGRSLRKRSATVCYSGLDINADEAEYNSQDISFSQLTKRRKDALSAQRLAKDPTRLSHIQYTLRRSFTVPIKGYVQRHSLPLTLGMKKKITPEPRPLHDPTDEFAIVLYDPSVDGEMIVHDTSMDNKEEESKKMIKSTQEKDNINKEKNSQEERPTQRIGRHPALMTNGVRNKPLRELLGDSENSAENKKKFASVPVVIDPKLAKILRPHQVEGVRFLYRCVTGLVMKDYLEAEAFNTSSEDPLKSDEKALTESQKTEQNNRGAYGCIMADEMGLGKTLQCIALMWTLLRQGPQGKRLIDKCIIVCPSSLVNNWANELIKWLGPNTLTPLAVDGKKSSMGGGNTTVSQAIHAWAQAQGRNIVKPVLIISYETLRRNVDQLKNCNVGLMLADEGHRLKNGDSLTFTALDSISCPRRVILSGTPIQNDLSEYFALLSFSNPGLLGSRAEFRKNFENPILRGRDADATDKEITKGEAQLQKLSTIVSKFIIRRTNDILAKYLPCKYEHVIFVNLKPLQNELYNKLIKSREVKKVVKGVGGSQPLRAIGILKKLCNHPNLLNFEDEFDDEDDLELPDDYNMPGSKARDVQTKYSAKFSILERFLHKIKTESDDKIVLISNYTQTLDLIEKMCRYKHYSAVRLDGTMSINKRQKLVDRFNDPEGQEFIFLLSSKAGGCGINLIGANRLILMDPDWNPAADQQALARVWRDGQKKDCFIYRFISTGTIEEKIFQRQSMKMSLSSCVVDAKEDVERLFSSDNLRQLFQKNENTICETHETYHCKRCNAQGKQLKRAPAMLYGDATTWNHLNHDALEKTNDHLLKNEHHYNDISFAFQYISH

B1: full-length S. cerevisiae Rad54 (GST-tagged), P32863 1-898 (enzyme)
chain: T1 chain

Columns and labels:
[1] = biological target: S. cerevisiae Rad51 (S. cerevisiae) (UniProt P25454); experiment: cryo-EM structure; Rad51 (5 uM) pre-assembled on 96-mer ssDNA (0.25 uM) in HR buffer (30 mM Tris pH 7.5, 20 mM MgCl2, 50 mM KCl, 1 mM DTT, 2 mM ATP), 30 C; 8-fold molar excess (40 uM) of Rad54 peptide or Hed1 peptide added for 10 min; both purified
[2] = biological target: T1, full-length S. cerevisiae Rad54 …; experiment: SEC; Sephacryl S-300 gel filtration in 30 mM Tris-HCl pH 7.5, 500 mM NaCl, 1 mM EDTA, 10% glycerol, 10 mM BME, during purification; both purified; conditions: remark: other sources report otherwise

binding [1] | binding [2] | Binder
binds |  | TKRRKDALSAQRLAKDPTRLSHIQYTLRRSFTVPIKGYVQRHSL [Rad54 peptide, 44 amino acids, residues 101-144 of S. cerevisiae Rad54]
binds |  | PRKKKSLKDLIYETNKTFYQVDSNKVKYKVGLSKKQLLP [Hed1 peptide, 39 amino acids, residues 118-156 of S. cerevisiae Hed1]
 | no binding | B1
